The test deals with anisodine-induced memory impairment mice. Nature of the test: Anisodine-induced memory impairment of mice. Type of test: in vivo. To be noted: 0.5 mg/kg, gavage.

`COc1cc2c(cc1OC)C(=O)C(CC1CCN(Cc3ccccc3)CC1)C2` (centres unmarked) [Aricept, Donepezil]: the Electricity-avoiding latency was 255.9 ± 126.1 s and the Number of error is given as 0.20 ± 0.18 times.
